At least one structure is not confirmed: it was looked up by name or label, or the drawing left a doubt.
System: Enteric
Experiment: MADM (BACcel) growth analysis sensitivity, surveillance mini-BAL
Type: cell-based
Conditions: specimen 005-D7, BACcel ID Enteric, 1.26 × 10^5 CFU/ml
Description: Adult MICU patients with identified surrogate were included within 72 hours of intubation and if anticipated to require MV for >48 h. Moribund state or pregnancy were exclusions. Surveillance mini-BAL (Combicath, Plastimed) was performed on Day 1, 3, 5, 7 and 10 of MV. Samples were split and processed for both a) routine respiratory quantitative microbiological culture and sensitivity assays (>48 h result availability) and b) rapid (<8 h) flowcell/surface-capture assays using the MADM system. Viable microorganisms were identified using growth analysis enhanced by a focused VAP antibody panel (S. aureus, P. aeruginosa, A. baumannii). Untypable organisms were also reported. Sensitivity was assessed using growth analysis. Attending physicians were blinded to MADM system results.
BAL sample were prepared, removing debris and separating microorganisms from other sample material. Sample microorganisms were introduced into a multichannel fluidic cassette as described elsewhere herein. Bacteria were concentrated and retained on the lower surface of all flowcells using low-voltage electrical field (5 min). […]
The automated digital microscopy system was used to perform darkfield imaging of 10 fields of view every 10 minutes for 180 minutes in each flowcell channel. […] Quantitation was performed by counting identified microorganism and computing original specimen CFU/mL.

CCC[C@@H]1C[C@@H](C(=O)N[C@@H]([C@H]2O[C@H](SC)[C@H](O)[C@@H](O)[C@H]2O)[C@H](C)Cl)N(C)C1 [CLI, clindamycin]
Phenotype, sensitivity: all growth
